Test results from the supplement of paper PMC12823440, “Inhibitors supercharge kinase turnover through native proteolytic circuits” (Nature, 2025).
Counter-ions that a name gives are not always drawn. The list shows a part of the results. The calls rarely recur for the same compound in another form.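 Kinases were expressed as nanoluciferase fusions in K562 cells and luminescence was read every 4 h between 2 and 18 h as percent of control, DMSO set to 100% and a positive control to 0%. A time point counts as decreased when the signal drops significantly (2 sigma). The hit call is the authors' own, does not follow from the count of time points alone, and its rule is not shown.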

By UniProt entry, the sequences of proteins in these tests, tags left out. Where a name states a change or a piece, a line headed by the entry shows the natural chain unless it says otherwise.
UniProt P07949, whole entry, looked up: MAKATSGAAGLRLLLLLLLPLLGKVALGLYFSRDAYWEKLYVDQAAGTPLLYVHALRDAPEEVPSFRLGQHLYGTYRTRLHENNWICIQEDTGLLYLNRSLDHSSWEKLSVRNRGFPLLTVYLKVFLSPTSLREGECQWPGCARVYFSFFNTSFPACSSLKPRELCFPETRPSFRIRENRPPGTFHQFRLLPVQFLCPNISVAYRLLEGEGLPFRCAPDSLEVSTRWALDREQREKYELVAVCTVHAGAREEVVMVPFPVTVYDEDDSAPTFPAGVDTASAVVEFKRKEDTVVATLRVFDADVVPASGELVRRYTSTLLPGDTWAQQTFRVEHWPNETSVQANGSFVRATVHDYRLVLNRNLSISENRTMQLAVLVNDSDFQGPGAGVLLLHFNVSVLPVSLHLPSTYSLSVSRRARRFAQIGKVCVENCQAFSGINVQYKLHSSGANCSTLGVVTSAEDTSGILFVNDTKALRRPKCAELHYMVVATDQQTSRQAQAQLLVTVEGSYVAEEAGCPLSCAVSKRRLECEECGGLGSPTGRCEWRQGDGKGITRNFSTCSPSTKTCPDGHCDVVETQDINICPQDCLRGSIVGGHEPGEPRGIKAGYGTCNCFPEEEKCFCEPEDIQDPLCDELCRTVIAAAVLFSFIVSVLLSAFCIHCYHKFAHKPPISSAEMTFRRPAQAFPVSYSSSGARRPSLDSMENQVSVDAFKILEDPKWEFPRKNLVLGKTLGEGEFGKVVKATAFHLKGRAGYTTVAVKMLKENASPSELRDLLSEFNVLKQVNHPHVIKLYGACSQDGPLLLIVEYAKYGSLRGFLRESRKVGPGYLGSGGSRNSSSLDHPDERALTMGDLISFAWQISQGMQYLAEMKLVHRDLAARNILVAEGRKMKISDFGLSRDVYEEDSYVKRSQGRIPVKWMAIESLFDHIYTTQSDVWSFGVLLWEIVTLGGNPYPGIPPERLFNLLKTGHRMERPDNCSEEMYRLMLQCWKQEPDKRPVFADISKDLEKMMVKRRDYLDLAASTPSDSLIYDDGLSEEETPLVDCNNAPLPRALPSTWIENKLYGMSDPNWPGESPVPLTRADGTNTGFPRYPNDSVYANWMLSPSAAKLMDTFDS
UniProt P07949, whole entry M918T, looked up: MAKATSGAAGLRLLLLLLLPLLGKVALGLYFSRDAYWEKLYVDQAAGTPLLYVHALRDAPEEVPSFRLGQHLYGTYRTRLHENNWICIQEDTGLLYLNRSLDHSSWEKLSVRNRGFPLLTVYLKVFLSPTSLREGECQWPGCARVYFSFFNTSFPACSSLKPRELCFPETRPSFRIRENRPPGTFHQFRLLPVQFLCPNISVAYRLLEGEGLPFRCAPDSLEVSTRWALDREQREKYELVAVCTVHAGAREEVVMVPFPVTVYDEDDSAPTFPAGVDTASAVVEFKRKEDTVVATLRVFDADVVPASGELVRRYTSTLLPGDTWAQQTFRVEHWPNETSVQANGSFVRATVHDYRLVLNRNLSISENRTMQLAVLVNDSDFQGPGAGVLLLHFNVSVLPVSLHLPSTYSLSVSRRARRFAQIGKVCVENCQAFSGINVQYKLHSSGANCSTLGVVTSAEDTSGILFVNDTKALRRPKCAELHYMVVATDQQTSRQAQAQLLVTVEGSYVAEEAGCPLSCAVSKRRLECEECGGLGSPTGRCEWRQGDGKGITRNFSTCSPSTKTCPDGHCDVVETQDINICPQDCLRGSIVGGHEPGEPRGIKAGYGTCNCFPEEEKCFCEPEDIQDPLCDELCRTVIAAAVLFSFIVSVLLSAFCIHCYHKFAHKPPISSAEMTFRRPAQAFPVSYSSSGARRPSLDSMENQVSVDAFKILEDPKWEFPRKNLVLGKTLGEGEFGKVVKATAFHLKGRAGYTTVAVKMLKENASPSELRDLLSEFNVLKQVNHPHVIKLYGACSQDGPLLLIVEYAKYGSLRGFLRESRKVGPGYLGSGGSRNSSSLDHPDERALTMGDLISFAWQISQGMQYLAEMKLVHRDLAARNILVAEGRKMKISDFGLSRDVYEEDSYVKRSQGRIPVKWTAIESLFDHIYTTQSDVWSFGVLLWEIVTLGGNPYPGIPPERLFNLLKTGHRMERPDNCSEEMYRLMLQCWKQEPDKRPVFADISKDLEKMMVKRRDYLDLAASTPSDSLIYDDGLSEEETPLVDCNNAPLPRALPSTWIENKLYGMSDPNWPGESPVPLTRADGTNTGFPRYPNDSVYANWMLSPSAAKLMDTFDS
UniProt Q9BRS2: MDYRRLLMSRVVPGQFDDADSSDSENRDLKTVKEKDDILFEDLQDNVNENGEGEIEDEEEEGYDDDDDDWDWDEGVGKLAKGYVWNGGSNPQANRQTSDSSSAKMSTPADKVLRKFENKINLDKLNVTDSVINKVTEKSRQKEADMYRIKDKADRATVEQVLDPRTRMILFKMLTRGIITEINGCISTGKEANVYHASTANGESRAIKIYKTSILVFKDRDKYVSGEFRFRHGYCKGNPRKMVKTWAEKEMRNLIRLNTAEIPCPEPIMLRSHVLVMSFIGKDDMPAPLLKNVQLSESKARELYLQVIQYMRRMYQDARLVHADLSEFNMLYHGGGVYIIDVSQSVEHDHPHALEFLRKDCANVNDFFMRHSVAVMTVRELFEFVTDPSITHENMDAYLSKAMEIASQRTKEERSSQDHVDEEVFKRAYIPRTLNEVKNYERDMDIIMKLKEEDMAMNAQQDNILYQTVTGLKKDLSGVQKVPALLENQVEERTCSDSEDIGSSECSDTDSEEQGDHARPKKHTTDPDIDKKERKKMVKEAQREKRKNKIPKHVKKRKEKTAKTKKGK
UniProt Q13546: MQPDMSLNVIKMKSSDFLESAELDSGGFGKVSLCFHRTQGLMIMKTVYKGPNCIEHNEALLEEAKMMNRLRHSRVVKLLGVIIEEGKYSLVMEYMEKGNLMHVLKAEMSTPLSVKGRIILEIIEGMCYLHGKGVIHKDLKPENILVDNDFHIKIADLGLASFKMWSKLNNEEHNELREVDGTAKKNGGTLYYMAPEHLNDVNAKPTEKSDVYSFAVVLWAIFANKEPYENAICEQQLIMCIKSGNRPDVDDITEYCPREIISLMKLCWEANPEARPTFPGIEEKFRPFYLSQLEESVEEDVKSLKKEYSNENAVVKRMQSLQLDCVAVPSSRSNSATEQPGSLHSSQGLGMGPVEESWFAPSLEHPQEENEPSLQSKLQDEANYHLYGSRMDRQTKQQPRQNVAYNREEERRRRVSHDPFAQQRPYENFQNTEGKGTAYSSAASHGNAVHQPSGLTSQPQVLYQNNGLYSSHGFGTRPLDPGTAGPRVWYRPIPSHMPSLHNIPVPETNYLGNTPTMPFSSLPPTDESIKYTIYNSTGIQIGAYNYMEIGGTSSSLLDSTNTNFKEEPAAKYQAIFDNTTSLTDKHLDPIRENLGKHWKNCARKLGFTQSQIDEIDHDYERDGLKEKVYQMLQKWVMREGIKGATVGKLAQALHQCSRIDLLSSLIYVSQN
UniProt Q01974, whole entry: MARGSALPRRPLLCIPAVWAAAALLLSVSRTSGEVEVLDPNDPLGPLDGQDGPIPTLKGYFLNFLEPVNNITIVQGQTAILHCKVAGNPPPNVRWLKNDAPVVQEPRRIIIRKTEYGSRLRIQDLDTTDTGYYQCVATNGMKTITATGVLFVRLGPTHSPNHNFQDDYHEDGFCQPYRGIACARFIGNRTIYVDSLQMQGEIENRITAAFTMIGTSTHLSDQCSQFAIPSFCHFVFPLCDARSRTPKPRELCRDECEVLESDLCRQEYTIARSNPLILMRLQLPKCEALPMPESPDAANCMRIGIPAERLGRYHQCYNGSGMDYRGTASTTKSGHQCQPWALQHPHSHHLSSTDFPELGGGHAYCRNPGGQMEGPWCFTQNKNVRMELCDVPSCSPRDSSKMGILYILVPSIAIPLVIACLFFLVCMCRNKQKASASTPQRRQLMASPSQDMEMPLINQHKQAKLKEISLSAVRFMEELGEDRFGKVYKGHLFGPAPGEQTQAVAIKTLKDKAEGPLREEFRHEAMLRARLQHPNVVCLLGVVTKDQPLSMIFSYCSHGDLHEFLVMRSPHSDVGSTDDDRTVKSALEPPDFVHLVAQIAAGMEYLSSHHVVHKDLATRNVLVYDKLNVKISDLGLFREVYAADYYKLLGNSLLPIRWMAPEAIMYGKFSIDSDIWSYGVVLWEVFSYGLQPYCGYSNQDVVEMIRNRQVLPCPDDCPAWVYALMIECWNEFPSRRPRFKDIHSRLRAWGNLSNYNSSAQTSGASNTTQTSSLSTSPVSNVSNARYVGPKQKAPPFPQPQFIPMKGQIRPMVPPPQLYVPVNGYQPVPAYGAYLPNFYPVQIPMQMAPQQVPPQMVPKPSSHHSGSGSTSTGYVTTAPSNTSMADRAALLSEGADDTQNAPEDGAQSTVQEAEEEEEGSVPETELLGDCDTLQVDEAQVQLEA
UniProt Q15418, whole entry: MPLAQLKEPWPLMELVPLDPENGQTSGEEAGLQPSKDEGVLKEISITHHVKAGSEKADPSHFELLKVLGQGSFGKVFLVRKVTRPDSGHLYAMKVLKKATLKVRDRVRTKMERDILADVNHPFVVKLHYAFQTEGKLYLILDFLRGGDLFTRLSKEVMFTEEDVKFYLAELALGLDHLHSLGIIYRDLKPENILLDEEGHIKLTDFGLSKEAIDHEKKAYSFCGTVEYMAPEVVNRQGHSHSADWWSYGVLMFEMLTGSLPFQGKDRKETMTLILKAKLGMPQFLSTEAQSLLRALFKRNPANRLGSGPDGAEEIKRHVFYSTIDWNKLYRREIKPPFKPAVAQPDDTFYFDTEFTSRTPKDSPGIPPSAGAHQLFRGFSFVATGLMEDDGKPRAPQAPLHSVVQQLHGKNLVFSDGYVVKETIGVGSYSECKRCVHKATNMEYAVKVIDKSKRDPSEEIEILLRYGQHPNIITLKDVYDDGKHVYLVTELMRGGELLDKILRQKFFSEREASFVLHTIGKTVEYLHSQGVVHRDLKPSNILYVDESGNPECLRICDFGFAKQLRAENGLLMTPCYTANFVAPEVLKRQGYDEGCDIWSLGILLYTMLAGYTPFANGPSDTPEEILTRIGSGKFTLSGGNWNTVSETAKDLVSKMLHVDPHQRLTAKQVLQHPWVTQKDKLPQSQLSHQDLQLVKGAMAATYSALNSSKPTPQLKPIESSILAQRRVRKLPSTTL
UniProt Q9NYA1, whole entry: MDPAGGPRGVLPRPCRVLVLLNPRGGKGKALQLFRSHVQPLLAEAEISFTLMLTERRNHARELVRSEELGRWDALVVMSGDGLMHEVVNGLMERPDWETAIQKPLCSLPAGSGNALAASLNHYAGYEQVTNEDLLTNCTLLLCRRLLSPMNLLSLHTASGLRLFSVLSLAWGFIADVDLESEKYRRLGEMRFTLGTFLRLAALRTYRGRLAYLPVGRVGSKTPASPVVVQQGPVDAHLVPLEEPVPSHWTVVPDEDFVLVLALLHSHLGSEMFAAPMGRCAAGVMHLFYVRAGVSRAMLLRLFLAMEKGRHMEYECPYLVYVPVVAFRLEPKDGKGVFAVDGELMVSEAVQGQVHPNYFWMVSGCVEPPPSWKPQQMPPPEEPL
UniProt Q9Y6E0: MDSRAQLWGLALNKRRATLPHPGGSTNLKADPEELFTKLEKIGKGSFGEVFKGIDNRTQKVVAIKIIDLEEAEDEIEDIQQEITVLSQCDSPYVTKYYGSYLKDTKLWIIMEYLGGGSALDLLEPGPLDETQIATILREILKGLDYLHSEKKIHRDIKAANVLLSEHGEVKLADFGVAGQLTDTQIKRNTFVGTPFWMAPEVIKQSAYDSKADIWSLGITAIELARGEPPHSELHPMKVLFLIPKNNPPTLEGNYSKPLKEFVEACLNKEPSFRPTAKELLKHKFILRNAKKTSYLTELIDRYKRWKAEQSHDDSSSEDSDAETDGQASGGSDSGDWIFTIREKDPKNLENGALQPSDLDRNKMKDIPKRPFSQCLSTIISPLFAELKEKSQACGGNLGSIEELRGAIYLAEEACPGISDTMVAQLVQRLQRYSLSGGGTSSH

Experiments:
Assay in all cases: kinase-Nluc reporter destabilization hit call (1 = scored as downregulated) (binary); higher = compound decreases kinase abundance
Conditions in all cases: K562; 2-18 h
[1] = biological target: RET (UniProt P07949)
[2] = biological target: RET_M918T (clone: RET_mut) (UniProt P07949)
[3] = biological target: RIOK1 (UniProt Q9BRS2)
[4] = biological target: RIPK1 (UniProt Q13546)
[5] = biological target: RIPK2 (UniProt O43353)
[6] = biological target: ROR2 (UniProt Q01974)
[7] = biological target: RPS6KA1 (UniProt Q15418)
[8] = biological target: SPHK1 (UniProt Q9NYA1)
[9] = biological target: SRC (UniProt P12931)
[10] = biological target: STK24 (UniProt Q9Y6E0)

Measured: kinase-Nluc reporter destabilization hit call

NC1=NCCN1CC(=O)O [Cyclocreatine] (10 µM)
inactive: [1] 0 | [2] 0 | [3] 0 | [4] 0 | [5] 0 | [6] 0 | [7] 0 | [8] 0 | [9] 0 | [10] 0

O=C(Nc1cccc(Nc2ncc(Br)c(NCCc3cnc[nH]3)n2)c1)N1CCCC1 (10 µM)
inactive: [1] 0 | [2] 0 | [3] 0 | [4] 0 | [5] 0 | [6] 0 | [7] 0 | [8] 0 | [9] 0 | [10] 0

N#Cc1ccnc(Nc2cc(C3CCN(C4COC4)CC3)cc(N3CCC(F)(F)C3)n2)c1 (2.5 µM)
inactive: [1] 0 | [2] 0 | [3] 0 | [4] 0 | [5] 0 | [6] 0 | [7] 0 | [8] 0 | [9] 0 | [10] 0

CN1C(=O)[C@@H](NC(=O)c2n[nH]c(Cc3ccccc3)n2)COc2ccccc21 (10 µM)
inactive: [1] 0 | [2] 0 | [3] 0 | [4] 0 | [5] 0 | [6] 0 | [7] 0 | [8] 0 | [9] 0 | [10] 0

Cc1nc(-c2cnn(C)c2)nc2c1[nH]c1ncc(-c3ccc(N4CCN(C)CC4)cc3)cc12 [GNE 220 (hydrochloride)] (10 µM)
inactive: [1] 0 | [2] 0 | [3] 0 | [4] 0 | [5] 0 | [6] 0 | [7] 0 | [8] 0 | [9] 0 | [10] 0

CC(C)N1CCN(c2ccc(Nc3ncc4cc5n(c4n3)C3(CCCCC3)CNC5=O)nc2)CC1 [Lerociclib (dihydrochloride)] (2 µM)
inactive: [1] 0 | [2] 0 | [3] 0 | [4] 0 | [5] 0 | [6] 0 | [7] 0 | [8] 0 | [9] 0 | [10] 0

O=C(O)c1cccc(CN2C(=O)/C(=C(\c3ccccc3)c3ccc(Cl)cc3)c3ccccc32)c1 (2.5 µM)
inactive: [1] 0 | [2] 0 | [3] 0 | [4] 0 | [5] 0 | [6] 0 | [7] 0 | [8] 0 | [9] 0 | [10] 0

Cc1ccc2c(Nc3cccc(Cl)c3F)nccc2c1NC(=O)c1csc2c(N)ncnc12 [Belvarafenib] (10 µM)
inactive: [1] 0 | [2] 0 | [3] 0 | [4] 0 | [5] 0 | [6] 0 | [7] 0 | [8] 0 | [9] 0 | [10] 0

COc1ccc2cc(-c3nc(-c4ccc([S+](C)[O-])cc4)[nH]c3-c3ccncc3)ccc2c1 (stereo not given) [Tie2 kinase inhibitor 1] (2.5 µM)
inactive: [1] 0 | [2] 0 | [3] 0 | [4] 0 | [5] 0 | [6] 0 | [7] 0 | [8] 0 | [9] 0 | [10] 0

O[C@@H]1CO[C@H]2[C@@H]1OC[C@H]2Oc1nc2nc(-c3ccc(-c4ccccc4)cc3)c(Cl)cc2[nH]1 (10 µM)
inactive: [1] 0 | [2] 0 | [3] 0 | [4] 0 | [5] 0 | [6] 0 | [7] 0 | [8] 0 | [9] 0 | [10] 0

Cc1ccc(C(=O)Nc2sc(Nc3ccccc3)nc2C(N)=O)cc1 (10 µM)
inactive: [1] 0 | [2] 0 | [3] 0 | [4] 0 | [5] 0 | [6] 0 | [7] 0 | [8] 0 | [9] 0 | [10] 0

O=c1cc(N2CCOCC2)nc2c3ccccc3ccn12 [Compound 401] (10 µM)
inactive: [1] 0 | [2] 0 | [3] 0 | [4] 0 | [5] 0 | [6] 0 | [7] 0 | [8] 0 | [9] 0 | [10] 0

Cc1c(-c2ccc(C(N)=O)c3[nH]c4cc(C(C)(C)O)ccc4c23)cccc1-n1cnc2ccccc2c1=O (2.5 µM)
inactive: [1] 0 | [2] 0 | [3] 0 | [4] 0 | [5] 0 | [6] 0 | [7] 0 | [8] 0 | [9] 0 | [10] 0

O=C(Nc1cccc(C(F)(F)F)c1)c1cccc2cc(Oc3cc(CO)ncn3)ccc12 (10 µM)
inactive: [1] 0 | [2] 0 | [3] 0 | [4] 0 | [5] 0 | [6] 0 | [7] 0 | [8] 0 | [9] 0 | [10] 0

FC(F)(F)c1ccc(/C=C/c2nc(COc3ccc(CCCCn4ccnn4)cc3)co2)cc1 [Mubritinib] (10 µM)
inactive: [1] 0 | [2] 0 | [3] 0 | [4] 0 | [5] 0 | [6] 0 | [7] 0 | [8] 0 | [9] 0 | [10] 0

CCN(CC)c1ccc2cc(-c3nc4cc(C)ccc4o3)c(=O)oc2c1 (10 µM)
inactive: [1] 0 | [2] 0 | [3] 0 | [4] 0 | [5] 0 | [6] 0 | [7] 0 | [8] 0 | [9] 0 | [10] 0

Cn1cc2cc(C(F)(F)c3nnc4ccc(-c5cnn(C6CC6)c5)nn34)c(F)cc2n1 [Bozitinib] (10 µM)
inactive: [1] 0 | [2] 0 | [3] 0 | [4] 0 | [5] 0 | [6] 0 | [7] 0 | [8] 0 | [9] 0 | [10] 0

COc1c(Nc2cc(C)[nH]n2)nc(Sc2ccc(S(=O)(=O)Cc3cccc([N+](=O)[O-])c3F)cc2F)nc1N1CCCCC1 [Centrinone-B] (2.5 µM)
inactive: [1] 0 | [2] 0 | [3] 0 | [4] 0 | [5] 0 | [6] 0 | [7] 0 | [8] 0 | [9] 0 | [10] 0

CC(C)CNc1ccnc(NCc2csc(-c3ccccc3)n2)n1 [KHS101 hydrochloride] (2.5 µM)
inactive: [1] 0 | [2] 0 | [3] 0 | [4] 0 | [5] 0 | [6] 0 | [7] 0 | [8] 0 | [9] 0 | [10] 0

2 records drawn at random from the list so far, as already listed:
FC(F)(F)c1ccc(/C=C/c2nc(COc3ccc(CCCCn4ccnn4)cc3)co2)cc1 [Mubritinib] (10 µM)
inactive: [1] 0 | [2] 0 | [3] 0 | [4] 0 | [5] 0 | [6] 0 | [7] 0 | [8] 0 | [9] 0 | [10] 0

Cn1cc2cc(C(F)(F)c3nnc4ccc(-c5cnn(C6CC6)c5)nn34)c(F)cc2n1 [Bozitinib] (10 µM)
inactive: [1] 0 | [2] 0 | [3] 0 | [4] 0 | [5] 0 | [6] 0 | [7] 0 | [8] 0 | [9] 0 | [10] 0

(continued)

O=C(CNc1cccc(Cl)c1)NC1CCCN(c2ncnc3[nH]ccc23)C1 (stereo not given) (10 µM)
inactive: [1] 0 | [2] 0 | [3] 0 | [4] 0 | [5] 0 | [6] 0 | [7] 0 | [8] 0 | [9] 0 | [10] 0

CC(C)C[C@@H](C(=O)Nc1ccn(C[C@@H](O)CO)n1)N1CC(Oc2ccccc2Cl)=CC1=O [Dorzagliatin] (10 µM)
inactive: [1] 0 | [2] 0 | [3] 0 | [4] 0 | [5] 0 | [6] 0 | [7] 0 | [8] 0 | [9] 0 | [10] 0

COc1ccccc1C(=O)/C=C/c1ccccc1C(=O)O (10 µM)
inactive: [1] 0 | [2] 0 | [3] 0 | [4] 0 | [5] 0 | [6] 0 | [7] 0 | [8] 0 | [9] 0 | [10] 0

O=C1O[C@H]([C@@H](O)CO)C(O)=C1OP(=O)(O)O [2-Phospho-L-ascorbic acid (trisodium)] (10 µM)
inactive: [1] 0 | [2] 0 | [3] 0 | [4] 0 | [5] 0 | [6] 0 | [7] 0 | [8] 0 | [9] 0 | [10] 0

NC(=S)n1[nH]c(-c2ccc([N+](=O)[O-])cc2)c(N=Nc2cccc(Cl)c2)c1=O (2.5 µM)
inactive: [1] 0 | [2] 0 | [3] 0 | [4] 0 | [5] 0 | [6] 0 | [7] 0 | [8] 0 | [9] 0 | [10] 0

O=C1NC(=O)C(c2cnc3ccccn23)=C1c1cn2c3c(cc(F)cc13)CNCC2 [GSK-3 inhibitor 1] (2.5 µM)
inactive: [1] 0 | [2] 0 | [3] 0 | [4] 0 | [5] 0 | [6] 0 | [7] 0 | [8] 0 | [9] 0 | [10] 0

CCn1c(=O)c(-c2cc[nH]n2)cc2c(C)nc(N)nc21 [Voxtalisib] (10 µM)
inactive: [1] 0 | [2] 0 | [3] 0 | [4] 0 | [5] 0 | [6] 0 | [7] 0 | [8] 0 | [9] 0 | [10] 0

O=C(Nc1nc2ccc(NC(=O)C34CC5CC(CC(C5)C3)C4)cc2s1)c1ccccc1 (10 µM)
inactive: [1] 0 | [2] 0 | [3] 0 | [4] 0 | [5] 0 | [6] 0 | [7] 0 | [8] 0 | [9] 0 | [10] 0

C[C@@H]1O[C@@H](O[C@@H]2[C@@H](O)[C@H](OCCc3ccc(O)c(O)c3)O[C@H](CO)[C@H]2OC(=O)/C=C/c2ccc(O)c(O)c2)[C@H](O)[C@H](O)[C@H]1O [Verbascoside] (10 µM)
inactive: [1] 0 | [2] 0 | [3] 0 | [4] 0 | [5] 0 | [6] 0 | [7] 0 | [8] 0 | [9] 0 | [10] 0

O=[N+]([O-])c1ccc2c(c1)S(=O)(=O)C=C2 [Stattic] (2.5 µM)
inactive: [1] 0 | [2] 0 | [3] 0 | [4] 0 | [5] 0 | [6] 0 | [7] 0 | [8] 0 | [9] 0 | [10] 0

COc1cc(/C=C/C(=O)N2CCC=CC2=O)cc(OC)c1OC [Piperlongumine] (2.5 µM)
active: [4] 1
inactive: [1] 0 | [2] 0 | [3] 0 | [5] 0 | [6] 0 | [7] 0 | [8] 0 | [9] 0 | [10] 0
